Data set [1] deals with MBP. Nature of the data set: EMSA. The settings on record: EMSA: 2 ug protein in 20 uL, 30 min at 25 C, 12% native PAGE; salt and pH not stated; recombinant protein; protein details: MBP alone (empty pMAL-c4X vector). In general terms: In EMSA bound probe runs differently from free probe, usually more slowly.
Data set [2] deals with MBP-CaHY5 (Capsicum annuum L.). Nature of the data set: EMSA. The settings on record: EMSA: 2 ug protein in 20 uL, 30 min at 25 C, 12% native PAGE, salt and pH not stated, recombinant protein, protein details: N-terminal MBP (pMAL-c4X).

The exact form of at least one protein or probe is not confirmed. No signal at the amounts used counts as a negative.

As for “CGTTGGATTGCACATGGGGAATCGACGATTGCGGTTGGTGACACGTGGTAAACATGAAAG (double strand) [CaPAL3 promoter WT probe (G-box)]”, the binding result in data set [1] is recorded as “no binding”; in data set [2] (repressed by competitor), “binds”.

As to “CGTTGGATTGCACATGGGGAATCGACGATTGCGGTTGGTGACTTTTGGTAAACATGAAAG (double strand) [CaPAL3 promoter Mut probe]”, the binding result in data set [2] is on record as “no binding”.

Turning to “GGCATCAACAATTGCACTAAATGGACATGTTAATGGGGATGTTGTAGCCAG (double strand) [CaPAL7 promoter WT probe (E-box)]”, the binding result in data set [2] (repressed by competitor) was “binds”.

Regarding “GGCATCAACTTTTGCACTAAATGGACATGTTAATGGGGATGTTGTAGCCAG (double strand) [CaPAL7 promoter Mut probe]”, in data set [2], the binding result is “no binding”.
